These are literature values, as cited in patent US6750244B2, “Compounds active at a novel site on receptor-operated calcium channels useful for treatment of neurological disorders and diseases” (NPS Pharmaceuticals, Inc., priority 1993, dated 2004).

Amino acid sequences for entries named in this document (tags omitted). Residues count along the entry.
UniProt P19492, 23-888 isoform 2 limits assumed: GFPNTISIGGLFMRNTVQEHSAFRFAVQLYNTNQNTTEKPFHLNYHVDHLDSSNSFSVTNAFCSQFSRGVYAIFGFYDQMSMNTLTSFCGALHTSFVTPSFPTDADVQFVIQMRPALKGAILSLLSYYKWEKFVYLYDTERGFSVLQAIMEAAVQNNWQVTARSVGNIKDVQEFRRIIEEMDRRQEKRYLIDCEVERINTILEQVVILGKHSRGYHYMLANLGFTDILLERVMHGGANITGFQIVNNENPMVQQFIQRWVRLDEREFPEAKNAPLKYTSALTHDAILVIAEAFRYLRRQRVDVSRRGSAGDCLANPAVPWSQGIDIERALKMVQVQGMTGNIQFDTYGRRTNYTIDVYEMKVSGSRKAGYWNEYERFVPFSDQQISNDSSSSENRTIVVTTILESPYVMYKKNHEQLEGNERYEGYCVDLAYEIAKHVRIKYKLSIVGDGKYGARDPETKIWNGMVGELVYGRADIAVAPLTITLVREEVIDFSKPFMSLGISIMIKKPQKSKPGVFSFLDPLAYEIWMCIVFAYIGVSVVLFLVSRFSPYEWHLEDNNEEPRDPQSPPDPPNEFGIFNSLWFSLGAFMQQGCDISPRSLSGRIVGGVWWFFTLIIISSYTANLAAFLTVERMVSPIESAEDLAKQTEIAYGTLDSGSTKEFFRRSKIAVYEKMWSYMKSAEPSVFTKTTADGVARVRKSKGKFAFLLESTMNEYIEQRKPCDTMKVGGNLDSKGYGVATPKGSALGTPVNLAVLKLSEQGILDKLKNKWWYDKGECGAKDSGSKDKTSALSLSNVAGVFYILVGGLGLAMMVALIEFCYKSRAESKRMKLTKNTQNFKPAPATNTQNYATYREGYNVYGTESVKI
UniProt P19493, 22-902 isoform 2 limits assumed: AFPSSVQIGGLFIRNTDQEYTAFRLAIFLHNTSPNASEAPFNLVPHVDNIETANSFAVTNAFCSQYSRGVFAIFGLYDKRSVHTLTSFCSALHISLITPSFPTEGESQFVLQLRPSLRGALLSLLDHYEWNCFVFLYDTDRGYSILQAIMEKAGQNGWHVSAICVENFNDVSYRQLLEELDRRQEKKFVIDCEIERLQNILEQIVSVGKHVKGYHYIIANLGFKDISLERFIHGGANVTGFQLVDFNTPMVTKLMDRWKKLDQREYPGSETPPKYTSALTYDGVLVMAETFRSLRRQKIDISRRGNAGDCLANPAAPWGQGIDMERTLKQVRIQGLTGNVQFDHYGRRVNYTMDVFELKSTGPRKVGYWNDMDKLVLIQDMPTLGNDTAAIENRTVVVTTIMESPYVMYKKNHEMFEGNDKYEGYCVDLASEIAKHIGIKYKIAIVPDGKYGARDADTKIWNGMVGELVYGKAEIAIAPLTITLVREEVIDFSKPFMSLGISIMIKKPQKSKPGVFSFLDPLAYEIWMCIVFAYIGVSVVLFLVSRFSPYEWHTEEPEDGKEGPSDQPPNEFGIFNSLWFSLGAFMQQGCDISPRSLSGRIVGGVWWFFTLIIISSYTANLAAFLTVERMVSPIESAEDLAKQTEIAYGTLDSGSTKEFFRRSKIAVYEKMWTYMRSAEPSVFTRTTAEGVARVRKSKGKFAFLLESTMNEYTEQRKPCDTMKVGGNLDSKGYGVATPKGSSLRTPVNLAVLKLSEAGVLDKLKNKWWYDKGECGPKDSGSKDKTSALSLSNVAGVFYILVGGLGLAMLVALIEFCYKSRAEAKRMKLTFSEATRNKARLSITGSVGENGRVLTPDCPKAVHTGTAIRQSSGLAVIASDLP
UniProt Q00959, 23-1464 limits assumed: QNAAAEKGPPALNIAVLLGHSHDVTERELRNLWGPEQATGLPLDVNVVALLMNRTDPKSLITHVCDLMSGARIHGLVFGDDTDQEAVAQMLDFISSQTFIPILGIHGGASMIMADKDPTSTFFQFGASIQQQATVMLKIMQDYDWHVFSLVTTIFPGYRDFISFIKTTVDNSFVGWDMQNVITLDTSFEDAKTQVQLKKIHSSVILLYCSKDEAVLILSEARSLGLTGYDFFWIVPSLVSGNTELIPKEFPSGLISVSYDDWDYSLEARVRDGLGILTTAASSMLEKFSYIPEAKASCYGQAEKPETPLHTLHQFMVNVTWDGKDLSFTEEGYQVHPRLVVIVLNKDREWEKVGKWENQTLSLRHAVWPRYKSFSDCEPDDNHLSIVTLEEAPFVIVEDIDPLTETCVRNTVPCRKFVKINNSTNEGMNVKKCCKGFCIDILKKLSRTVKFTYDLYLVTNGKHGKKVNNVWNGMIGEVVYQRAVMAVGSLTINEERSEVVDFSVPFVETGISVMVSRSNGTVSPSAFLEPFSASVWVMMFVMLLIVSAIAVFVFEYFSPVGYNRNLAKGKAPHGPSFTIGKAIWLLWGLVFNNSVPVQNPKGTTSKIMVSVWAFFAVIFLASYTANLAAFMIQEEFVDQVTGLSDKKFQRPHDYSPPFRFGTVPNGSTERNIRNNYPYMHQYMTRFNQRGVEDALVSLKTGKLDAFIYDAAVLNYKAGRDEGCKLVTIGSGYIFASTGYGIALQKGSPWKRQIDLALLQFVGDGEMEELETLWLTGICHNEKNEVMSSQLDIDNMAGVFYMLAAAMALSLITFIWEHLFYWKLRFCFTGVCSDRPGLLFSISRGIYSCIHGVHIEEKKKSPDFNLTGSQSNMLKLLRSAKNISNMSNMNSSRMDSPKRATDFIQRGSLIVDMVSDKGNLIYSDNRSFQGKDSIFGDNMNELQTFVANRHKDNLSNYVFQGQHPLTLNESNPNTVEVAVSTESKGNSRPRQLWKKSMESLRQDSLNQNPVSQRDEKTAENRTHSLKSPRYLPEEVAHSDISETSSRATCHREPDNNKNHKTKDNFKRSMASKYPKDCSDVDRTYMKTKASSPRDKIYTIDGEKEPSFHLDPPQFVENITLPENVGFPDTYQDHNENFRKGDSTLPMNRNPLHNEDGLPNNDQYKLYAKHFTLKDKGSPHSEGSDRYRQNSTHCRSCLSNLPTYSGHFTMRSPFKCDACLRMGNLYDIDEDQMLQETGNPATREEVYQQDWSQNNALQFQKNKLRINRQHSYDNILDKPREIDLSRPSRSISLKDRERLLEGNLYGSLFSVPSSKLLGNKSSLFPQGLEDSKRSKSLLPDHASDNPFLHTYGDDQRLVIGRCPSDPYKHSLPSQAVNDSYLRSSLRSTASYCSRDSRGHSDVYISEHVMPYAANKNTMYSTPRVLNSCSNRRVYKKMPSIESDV
UniProt A7XY94, 25-1448 limits assumed: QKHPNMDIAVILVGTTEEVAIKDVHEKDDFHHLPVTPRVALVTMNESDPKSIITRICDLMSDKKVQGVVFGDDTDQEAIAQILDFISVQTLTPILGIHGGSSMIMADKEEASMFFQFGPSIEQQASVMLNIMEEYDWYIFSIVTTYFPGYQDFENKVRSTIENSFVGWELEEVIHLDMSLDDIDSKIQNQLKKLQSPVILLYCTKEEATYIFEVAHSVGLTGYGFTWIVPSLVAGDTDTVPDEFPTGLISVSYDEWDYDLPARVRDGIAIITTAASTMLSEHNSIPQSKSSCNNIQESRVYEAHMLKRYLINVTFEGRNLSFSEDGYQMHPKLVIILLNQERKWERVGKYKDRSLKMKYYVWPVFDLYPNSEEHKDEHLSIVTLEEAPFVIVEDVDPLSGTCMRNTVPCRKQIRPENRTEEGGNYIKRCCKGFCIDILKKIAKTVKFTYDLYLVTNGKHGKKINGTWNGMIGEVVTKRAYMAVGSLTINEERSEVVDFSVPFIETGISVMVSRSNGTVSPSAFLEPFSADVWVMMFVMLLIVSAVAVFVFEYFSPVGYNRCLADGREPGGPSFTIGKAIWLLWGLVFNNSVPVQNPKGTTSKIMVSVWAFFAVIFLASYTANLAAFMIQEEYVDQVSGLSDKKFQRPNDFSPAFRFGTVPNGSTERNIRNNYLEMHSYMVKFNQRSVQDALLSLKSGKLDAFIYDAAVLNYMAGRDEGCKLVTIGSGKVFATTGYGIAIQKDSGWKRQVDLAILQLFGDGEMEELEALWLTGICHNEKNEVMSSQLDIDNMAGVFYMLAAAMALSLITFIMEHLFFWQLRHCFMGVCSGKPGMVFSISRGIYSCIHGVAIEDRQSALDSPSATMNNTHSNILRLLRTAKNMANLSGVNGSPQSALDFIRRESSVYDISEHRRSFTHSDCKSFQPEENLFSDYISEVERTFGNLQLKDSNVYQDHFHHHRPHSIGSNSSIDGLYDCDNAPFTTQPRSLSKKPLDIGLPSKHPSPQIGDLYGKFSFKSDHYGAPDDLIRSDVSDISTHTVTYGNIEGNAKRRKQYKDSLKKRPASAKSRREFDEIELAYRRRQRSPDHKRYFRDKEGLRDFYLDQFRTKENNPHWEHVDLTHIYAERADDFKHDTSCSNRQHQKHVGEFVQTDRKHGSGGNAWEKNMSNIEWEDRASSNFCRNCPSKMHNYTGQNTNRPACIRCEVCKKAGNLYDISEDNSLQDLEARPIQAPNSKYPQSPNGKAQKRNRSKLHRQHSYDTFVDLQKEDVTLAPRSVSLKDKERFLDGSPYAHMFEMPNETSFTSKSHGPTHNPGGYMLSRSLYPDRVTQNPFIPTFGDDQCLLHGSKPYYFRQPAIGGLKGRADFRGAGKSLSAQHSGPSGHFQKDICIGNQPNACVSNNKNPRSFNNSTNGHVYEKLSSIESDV
UniProt P19490, 19-907 limits assumed: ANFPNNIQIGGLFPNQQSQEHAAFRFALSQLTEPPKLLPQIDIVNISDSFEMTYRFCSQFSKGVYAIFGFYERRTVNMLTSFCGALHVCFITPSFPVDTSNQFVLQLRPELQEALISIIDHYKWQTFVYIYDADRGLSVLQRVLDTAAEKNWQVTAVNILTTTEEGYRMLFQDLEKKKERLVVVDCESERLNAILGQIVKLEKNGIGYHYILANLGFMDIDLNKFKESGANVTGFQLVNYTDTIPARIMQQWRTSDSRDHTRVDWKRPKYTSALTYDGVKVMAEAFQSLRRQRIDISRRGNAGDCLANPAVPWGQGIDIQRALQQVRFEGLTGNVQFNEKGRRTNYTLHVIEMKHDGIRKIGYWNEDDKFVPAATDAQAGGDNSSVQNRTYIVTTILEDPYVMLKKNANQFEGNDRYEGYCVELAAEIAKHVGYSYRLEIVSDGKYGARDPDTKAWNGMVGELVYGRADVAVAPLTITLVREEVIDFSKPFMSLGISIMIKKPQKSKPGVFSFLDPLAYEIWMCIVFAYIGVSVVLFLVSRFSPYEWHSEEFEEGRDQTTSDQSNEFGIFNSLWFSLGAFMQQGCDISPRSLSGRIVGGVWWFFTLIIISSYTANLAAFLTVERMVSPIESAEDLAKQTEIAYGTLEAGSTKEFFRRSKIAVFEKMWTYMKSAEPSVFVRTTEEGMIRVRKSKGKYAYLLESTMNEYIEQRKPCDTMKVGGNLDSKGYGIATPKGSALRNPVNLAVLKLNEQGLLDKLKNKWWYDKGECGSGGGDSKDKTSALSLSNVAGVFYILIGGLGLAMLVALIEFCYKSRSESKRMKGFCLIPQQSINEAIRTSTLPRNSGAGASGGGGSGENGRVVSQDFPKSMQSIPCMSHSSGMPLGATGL
UniProt P19490, 19-907 isoform 2 limits assumed: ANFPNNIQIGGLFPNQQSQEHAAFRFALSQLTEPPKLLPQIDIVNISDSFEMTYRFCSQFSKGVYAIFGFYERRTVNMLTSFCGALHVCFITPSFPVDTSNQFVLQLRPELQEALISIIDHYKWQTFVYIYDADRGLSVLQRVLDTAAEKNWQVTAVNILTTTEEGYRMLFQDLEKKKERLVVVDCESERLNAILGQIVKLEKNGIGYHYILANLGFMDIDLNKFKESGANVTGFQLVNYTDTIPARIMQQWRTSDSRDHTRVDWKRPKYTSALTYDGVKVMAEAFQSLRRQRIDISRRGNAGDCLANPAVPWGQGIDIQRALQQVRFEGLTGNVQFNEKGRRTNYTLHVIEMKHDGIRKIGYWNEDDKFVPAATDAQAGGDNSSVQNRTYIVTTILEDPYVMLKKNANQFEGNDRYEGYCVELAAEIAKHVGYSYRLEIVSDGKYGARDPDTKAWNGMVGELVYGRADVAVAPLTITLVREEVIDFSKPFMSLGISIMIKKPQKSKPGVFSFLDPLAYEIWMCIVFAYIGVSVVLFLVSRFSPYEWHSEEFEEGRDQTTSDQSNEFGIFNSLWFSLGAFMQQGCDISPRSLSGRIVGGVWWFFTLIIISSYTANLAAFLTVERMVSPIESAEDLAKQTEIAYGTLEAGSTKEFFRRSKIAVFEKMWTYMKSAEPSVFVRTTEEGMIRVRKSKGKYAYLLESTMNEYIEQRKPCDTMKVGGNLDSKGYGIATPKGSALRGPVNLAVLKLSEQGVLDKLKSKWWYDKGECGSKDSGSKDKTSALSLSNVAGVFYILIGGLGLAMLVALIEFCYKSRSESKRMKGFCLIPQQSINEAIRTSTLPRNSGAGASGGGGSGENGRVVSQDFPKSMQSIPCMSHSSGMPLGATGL

The term Ki denotes the dissociation constant of the complex between target and ligand, obtained from inhibition or displacement. As a reminder, the IC50 is the concentration that gives 50% inhibition. In general, minimal effective dose refers to the smallest amount tested that counted as effective. Usually Kd stands for the constant that tells how readily two partners part at equilibrium.

Each structure is given as a SMILES string. The structures given here were assigned with low confidence; some may be wrong.

Series [1] addresses GluRBi (Rattus norvegicus, UniProt P19491, Q607R). As to conditions: concentrations up to 10 μM; cited from earlier work.
The target in series [2] is GluRCi (Rattus norvegicus, UniProt P19492). As to conditions: cited from earlier work.
In series [3] the target is GluRDi (Rattus norvegicus, UniProt P19493). As to conditions: cited from earlier work.
Series [4] concerns the target NMDAR1+NMDAR2C (Rattus norvegicus, UniProt P35439+Q00961). As to conditions: cited from earlier work.
Series [5] has as its target kainate receptors. The conditions noted are these: read-out: IC50, kainate-induced responses; cited from earlier work.
In series [6] the target is NMDAR1+NMDAR2A (Rattus norvegicus, UniProt P35439+Q00959). The conditions noted are these: cited from earlier work.
Series [7] deals with NMDAR1 (UniProt A7XY94+P35439). The conditions noted are these: cited from earlier work.
In series [8] the target is GluR1+GluR2 (Rattus norvegicus, UniProt P19490+P19491, Q607R). As to conditions: cited from earlier work.
Series [9] concerns the target NMDAR1+NMDAR2B (Rattus norvegicus, UniProt P35439+Q00960). The conditions noted are these: cited from earlier work.
Series [10] addresses GluRAi (Rattus norvegicus, UniProt P19490). The conditions noted are these: cited from earlier work.
In series [11] the test system is NMDA-induced seizures. As to conditions: subcutaneously (s.c.); cited from earlier work.
For series [12], the system named is muscle relaxation and anesthesia. The conditions noted are these: intrathecal administration; cited from earlier work.
Series [13] concerns rat forebrain membranes. The conditions noted are these: cited from earlier work.
Series [14] has as its target NMDA receptors. The conditions noted are these: read-out: IC50, NMDA-induced responses; cited from earlier work.

On to `N=C(N)NCCC[C@H](N)C(=O)NCCCNCCCNCCCCCNC(=O)[C@H](CC(N)=O)NC(=O)Cc1ccc(O)cc1O`, for which the antagonism entry in series [1] is on record as “essentially ineffective”. The Ki in series [2] is 230 nM; in series [3], 430 nM; in series [10], 350 nM. For the same compound, the IC50 was 460 nM in [4]; 70 nM in series [5]; 9 nM in [6]; 90 nM in series [7]; 300000 nM in series [8]; 2.5 nM in series [9]. In addition, in series [14], the IC50 was 40 nM. Besides, in [11], the minimal effective dose is on record as 32 mg/kg. In addition, the “muscle relaxation and anesthesia” value in series [12] was “produces muscle relaxation and anesthesia”. In series [13], the dissociation constant Kd is 11200 nM.
